PubChem BioAssay AID652272 – Drosophila RNAi Screening Center | 2013
Aim: 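Genome-wide knock-down search for components of Hedgehog signalling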 (primary screen). Cell system: Drosophila clone 8 (Cl8) cells. Knock-down reagent: long dsRNA against Drosophila genes. Measured: 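Plate reader light from a firefly reporter under a ptc promoter fragment that responds to Hedgehog, with Renilla light as transfection reference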. Scale: firefly Hh reporter signal: higher = more ptc reporter light; Renilla reference signal: higher = more Renilla control light. Rule for the call: 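Hit when the z-score averaged over two replicates is under -2 or over +3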. Calls: active = hit: reporter lowered or raised; inactive = not a hit.
In all, the deposit lists about 21,000 reagents; shown is an unselected part of those that have a named target and a result. Of all reagents, 503 (2.4%) got an active call. 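Raw plate light values, not normalised; calls rest on replicate z-scores that were not deposited; hits include reporter decreases as well as increases.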 A number with no mark means an inactive call. Reagents against one gene are numbered here. Names joined by + are all predicted targets of the reagent. The record does not give: the amount of reagent, the time to read-out.

no.	predicted target	reagent no.	firefly Hh reporter signal, replicate 1	firefly Hh reporter signal, replicate 2	firefly Hh reporter signal, replicate 3	Renilla reference signal, replicate 1	Renilla reference signal, replicate 2
1	CG10958	1	1.11e5	98023		2678	2530
2	CG1360	1	74116	40053		1867	3931
3	Fatp3	1	62173	46157		1573	3794
4	ArgRS	1	74613	1.97e5		3276	8593
5	CG15422	1	1.43e5	69633		3691	6404
6	CG31689	1	1.72e5	1.10e5		3376	2388
7	Spt6	1	34176	36340		1186	1283
8	CG15249	1	1.05e5	3.35e5		3254	12490
9	CG11975	1	1.16e5	80372		5197	3445
10	CG9215	1	58710	1.57e5		1789	6940
11	Vha55	1	1.88e5	1.38e5		7642	5405
12	ENGase	1	5.85e5	1.24e5		4185	4185
13	ENGase	2	61206	1.87e5		1760	9494
14	CG2852	1	1.04e5	56480		2963	5657
15	CG31933	1	1.97e5	1.23e5		4476	3351
16	btv	1	95990	1.60e5		2613	8528
17	btv	2	1.15e5	64805		2598	6261
18	CG43755	1	7.14e5	3.23e5		35734	11857
19	Sec24CD	1	1.33e5	78922		4693	3165
20	Mhcl	1	44512	1.86e5		8561	3114
21	Mhcl	2	79820	83377		2801	5657
22	Mhcl	3	83028	72020		2659	4896
23	fbl	1	95561	1.04e5		3363	2769
24	Gr77a	1	2.19e5			4819	
25	CG14282	1	5.22e5	69328		26129	1563
26	CYTB (retired record)	1	1.16e5	2.34e5		4106	10125
27	Gdi	1	1.07e5	80877		4054	3595
28	Ubc2	1	7.84e5	2.98e5		36459	10625
29	Ubc2	2	1.15e5	51969		3143	5670
30	Cchl	1	1.11e5	93078		4344	3325
31	MED25	1	39398 (active)	25644		2592	1456
32	CG33269	1	65260	60640	45715	6250	3415
33	CG43132 (retired record)	1	88604	1.80e5		2347	8362
34	red	1	68308	32508		2646	1418
35	CG18477 + CG31780	1	86412	60432		2615	5664
36	CG4576	1	77482	81801		2199	2300
37	CG17343	1	1.26e5	53561		3063	4768
38	PGRP-SA	1	78688	1.85e5		3009	7610
39	MICU3	1	50001	2.49e5		10468	6342
40	MICU3	2	1.05e5	97015		4928	3954

2 entries from above, arranged by “firefly Hh reporter signal, replicate 2”, low to high:
predicted target	reagent no.	firefly Hh reporter signal, replicate 1	firefly Hh reporter signal, replicate 2	firefly Hh reporter signal, replicate 3	Renilla reference signal, replicate 1	Renilla reference signal, replicate 2
CG15422	1	1.43e5	69633		3691	6404
ArgRS	1	74613	1.97e5		3276	8593
